Measurements reported in the supplement of paper PMC6143611.
Counter-ions that a name gives are not always drawn. ± gives the uncertainty stated by the source. The list shows a part of the results. Part of the spread comes from offsets between plates or batches.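 A heat-shock-induced fluorescent stripe was set in larval rod outer segments at 6 dpf. Shedding distance ran from stripe to outer segment tip, measured by confocal stacks in about three fish per compound. Controls: 0.2% DMSO vehicle. Flagged compounds showed ≥20% change from same-week control, p < 0.001 (Dunnett test on mixed-effects models).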

How the values were obtained:
[1] = system: Danio rerio larva rod photoreceptor outer segment; assay: rod outer segment growth distance Dg, difference from same-week DMSO control mean; higher = more outer segment growth; conditions: 20 µM; treatment time: 4 days (6-10 dpf)
[2] = system: Danio rerio larva rod photoreceptor outer segment; assay: rod outer segment shedding distance Ds, difference from same-week DMSO control mean; higher = less outer segment shedding; conditions: 20 µM; treatment time: 4 days (6-10 dpf)

Structure (SMILES): CCN(C)C(=O)Oc1cccc([C@H](C)N(C)C)c1 [Rivastigmine Tartrate]
- rod outer segment growth distance Dg [1]: -0.92 ± 0.3 um
- rod outer segment shedding distance Ds [2]: -0.18 ± 0.33 um

Structure (SMILES): C[C@]12CC[C@H]3[C@@H](CC[C@@]45O[C@@H]4C(O)=C(C#N)C[C@]35C)[C@@H]1CC[C@@H]2O [Trilostane]
- rod outer segment growth distance Dg [1]: 0.07 ± 0.15 um
- rod outer segment shedding distance Ds [2]: 0.37 ± 0.2 um

Structure (SMILES): C[C@@]12N[C@@H](Cc3ccccc31)c1ccccc12 [(-)-MK 801 Maleate]
- rod outer segment growth distance Dg [1]: -2.24 ± 0.29 um
- rod outer segment shedding distance Ds [2]: -0.87 ± 0.17 um

Structure (SMILES): CC(=O)OCC1=C(C(=O)O)N2C(=O)[C@@H](N)[C@H]2SC1 [7-Aminocephalosporanic acid]
- rod outer segment growth distance Dg [1]: -0.11 ± 0.21 um
- rod outer segment shedding distance Ds [2]: -0.25 ± 0.19 um

Structure (SMILES): O=c1[nH]c2ccccc2n1CCCN1CCC(n2c(=O)[nH]c3cc(Cl)ccc32)CC1 [Domperidone]
- rod outer segment growth distance Dg [1]: 0.59 ± 0.27 um
- rod outer segment shedding distance Ds [2]: 0.25 ± 0.27 um

Structure (SMILES): O=[N+]([O-])c1ncc[nH]1 [Azomycin]
- rod outer segment growth distance Dg [1]: 0.49 ± 0.23 um
- rod outer segment shedding distance Ds [2]: 0.42 ± 0.37 um

Structure (SMILES): Cc1cc(C(=O)CN2CCCC2)c(C)n1-c1ccc(F)cc1
- rod outer segment growth distance Dg [1]: -0.77 ± 0.21 um
- rod outer segment shedding distance Ds [2]: -0.64 ± 0.24 um

Structure (SMILES): O=C(O)c1nn(Cc2ccc(Cl)cc2Cl)c2ccccc12 [Lonidamine]
- rod outer segment growth distance Dg [1]: -0.5 ± 0.22 um
- rod outer segment shedding distance Ds [2]: -0.58 ± 0.15 um

Structure (SMILES): O=C(O)CNC(=O)c1c(O)c2ccccc2n(Cc2ccccc2)c1=O
- rod outer segment growth distance Dg [1]: -1.11 ± 0.17 um
- rod outer segment shedding distance Ds [2]: -0.18 ± 0.12 um

Structure (SMILES): Cc1ccccc1-n1c(Cn2ncc3c(N)ncnc32)nc2cccc(C)c2c1=O
- rod outer segment growth distance Dg [1]: 0.31 ± 0.28 um
- rod outer segment shedding distance Ds [2]: -0.13 ± 0.33 um

Structure (SMILES): O=C(NCC1CCOCC1)c1cnc(Nc2ccc(Cl)cc2Cl)nc1C(F)(F)F
- rod outer segment growth distance Dg [1]: 0.52 ± 0.15 um
- rod outer segment shedding distance Ds [2]: 0.02 ± 0.13 um

Structure (SMILES): CN1[C@@H]2CC(O)C[C@H]1[C@@H]1O[C@@H]12 (stereo partly specified) [Scopine]
- rod outer segment growth distance Dg [1]: 0.08 ± 0.25 um
- rod outer segment shedding distance Ds [2]: -0.6 ± 0.16 um

Structure (SMILES): C[C@]12CCC(=O)C(O)=C1CC[C@@H]1[C@@H]2CC[C@]2(C)C(=O)CC[C@@H]12 [Formestane]
- rod outer segment growth distance Dg [1]: -0.1 ± 0.24 um
- rod outer segment shedding distance Ds [2]: 0.06 ± 0.31 um
